Experimental data taken from publication doi:10.1101/2025.06.21.660855.
No constants are given. Whether binding was seen depends on the method and setting. Binding seen in cells or lysates may run through a third protein. For part of these data: Binding calls can cover weak binding; strength is not graded here. Sequences can lack the tags named with a protein.

Legend:
[1] = target: T1, GST-Arm^34–87 (Drosophila) (UniProt P18824); assay: pull-down
T1 sequence: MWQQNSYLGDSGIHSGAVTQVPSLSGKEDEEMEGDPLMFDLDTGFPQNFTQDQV

GST-Psv (Drosophila) = GST-Psv (Drosophila) (UniProt Q8SZN4); assay: pull-down

| Molecule | binding [1] | binding (GST-Psv (Drosophila)) |
| --- | --- | --- |
| MBP-Psv (Drosophila) | no binding | – |
| MBP-Arm (from UniProt P18824 1-843) | – | binds |
| full-length MBP-Klp61F (protein, UniProt P46863 1-1066) MDISGGNTSRQPQKKSNQNIQVYVRVRPLNSRERCIRSAEVVDVVGPREVVTRHTLDSKLTKKFTFDRSFGPESKQCDVYSVVVSPLIEEVLNGYNCTVFAYGQTGTGKTHTMVGNETAELKSSWEDDSDIGIIPRALSHLFDELRMMEVEYTMRISYLELYNEELCDLLSTDDTTKIRIFDDSTKKGSVIIQGLEEIPVHSKDDVYKLLEKGKERRKTATTLMNAQSSRSHTVFSIVVHIRENGIEGEDMLKIGKLNLVDLAGSENVSKAGNEKGIRVRETVNINQSLLTLGRVITALVDRAPHVPYRESKLTRLLQESLGGRTKTSIIATISPGHKDIEETLSTLEYAHRAKNIQNKPEVNQKLTKKTVLKEYTEEIDKLKRDLMAARDKNGIYLAEETYGEITLKLESQNRELNEKMLLLKALKDELQNKEKIFSEVSMSLVEKTQELKKTEENLLNTKGTLLLTKKVLTKTKRRYKEKKELVASHMKTEQVLTTQAQEILAAADLATDDTHQLHGTIERRRELDEKIRRSCDQFKDRMQDNLEMIGGSLNLYQDQQAALKEQLSQEMVNSSYVSQRLALNSSKSIEMLKEMCAQSLQDQTNLHNKLIGEVMKISDQHSQAFVAKLMEQMQQQQLLMSKEIQTNLQVIEENNQRHKAMLDSMQEKFATIIDSSLQSVEEHAKQMHKKLEQLGAMSLPDAEELQNLQEELANERALAQQEDALLESMMMQMEQIKNLRSKNSISMSVHLNKMEESRLTRNHRIDDIKSGIQDYQKLGIEASQSAQAELTSQMEAGMLCLDQGVANCSMLQVHMKNLNQKYEKETNENVGSVRVHHNQVEIICQESKQQLEAVQEKTEVNLEQMVDARQQLITEDRQRFIGHATVATDLVQESNRQFSEHAEHQRQQLQICEQELVRFQQSELKTYAPTGTTPSKRDFVYPRTLVATSPHQEIVRRYRQELDWSDLDTTATIDECSEGEHDVSMHSVQELSETETIMNSTPIEPVDGVTVKRGCGTTRNSNSNALKPPVATGGKRSSSLSRSLTPSKTSPRGSPAFVRHNKENVA | – | no binding |
